According to the supplement of paper PMC6411743:
± gives the standard deviation of the averaged measurements. The list shows a part of the results.

By UniProt entry, the sequences of proteins in these tests, tags left out. Where a name states a change or a piece, a line headed by the entry shows the natural chain unless it says otherwise.
UniProt Q9P032: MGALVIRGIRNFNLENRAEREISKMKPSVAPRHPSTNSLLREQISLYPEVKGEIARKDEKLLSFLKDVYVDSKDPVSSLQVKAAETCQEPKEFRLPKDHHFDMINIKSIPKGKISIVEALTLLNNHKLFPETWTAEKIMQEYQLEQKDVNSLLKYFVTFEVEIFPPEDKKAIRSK
UniProt Q9NXA8: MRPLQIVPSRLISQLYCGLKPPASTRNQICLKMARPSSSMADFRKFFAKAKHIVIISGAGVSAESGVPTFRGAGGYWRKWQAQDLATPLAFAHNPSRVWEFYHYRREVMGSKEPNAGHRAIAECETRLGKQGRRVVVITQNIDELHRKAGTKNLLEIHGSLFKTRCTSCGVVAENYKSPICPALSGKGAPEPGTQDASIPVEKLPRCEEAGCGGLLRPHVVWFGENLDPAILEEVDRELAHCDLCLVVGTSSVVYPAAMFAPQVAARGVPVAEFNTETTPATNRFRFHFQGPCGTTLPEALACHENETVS
UniProt Q9P0P0: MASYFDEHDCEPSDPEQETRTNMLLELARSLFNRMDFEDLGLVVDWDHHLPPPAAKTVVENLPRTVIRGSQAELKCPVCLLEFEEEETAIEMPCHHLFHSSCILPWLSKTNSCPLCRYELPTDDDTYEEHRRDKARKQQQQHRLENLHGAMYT
UniProt Q9P0N9: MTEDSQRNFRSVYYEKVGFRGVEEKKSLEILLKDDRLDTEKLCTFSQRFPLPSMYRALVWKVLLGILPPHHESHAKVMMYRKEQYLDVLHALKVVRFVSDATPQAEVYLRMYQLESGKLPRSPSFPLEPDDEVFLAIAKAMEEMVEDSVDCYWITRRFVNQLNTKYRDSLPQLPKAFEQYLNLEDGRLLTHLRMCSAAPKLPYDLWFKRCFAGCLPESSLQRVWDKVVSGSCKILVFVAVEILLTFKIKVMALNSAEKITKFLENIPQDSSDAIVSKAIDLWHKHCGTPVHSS
UniProt Q9UIQ6, whole entry: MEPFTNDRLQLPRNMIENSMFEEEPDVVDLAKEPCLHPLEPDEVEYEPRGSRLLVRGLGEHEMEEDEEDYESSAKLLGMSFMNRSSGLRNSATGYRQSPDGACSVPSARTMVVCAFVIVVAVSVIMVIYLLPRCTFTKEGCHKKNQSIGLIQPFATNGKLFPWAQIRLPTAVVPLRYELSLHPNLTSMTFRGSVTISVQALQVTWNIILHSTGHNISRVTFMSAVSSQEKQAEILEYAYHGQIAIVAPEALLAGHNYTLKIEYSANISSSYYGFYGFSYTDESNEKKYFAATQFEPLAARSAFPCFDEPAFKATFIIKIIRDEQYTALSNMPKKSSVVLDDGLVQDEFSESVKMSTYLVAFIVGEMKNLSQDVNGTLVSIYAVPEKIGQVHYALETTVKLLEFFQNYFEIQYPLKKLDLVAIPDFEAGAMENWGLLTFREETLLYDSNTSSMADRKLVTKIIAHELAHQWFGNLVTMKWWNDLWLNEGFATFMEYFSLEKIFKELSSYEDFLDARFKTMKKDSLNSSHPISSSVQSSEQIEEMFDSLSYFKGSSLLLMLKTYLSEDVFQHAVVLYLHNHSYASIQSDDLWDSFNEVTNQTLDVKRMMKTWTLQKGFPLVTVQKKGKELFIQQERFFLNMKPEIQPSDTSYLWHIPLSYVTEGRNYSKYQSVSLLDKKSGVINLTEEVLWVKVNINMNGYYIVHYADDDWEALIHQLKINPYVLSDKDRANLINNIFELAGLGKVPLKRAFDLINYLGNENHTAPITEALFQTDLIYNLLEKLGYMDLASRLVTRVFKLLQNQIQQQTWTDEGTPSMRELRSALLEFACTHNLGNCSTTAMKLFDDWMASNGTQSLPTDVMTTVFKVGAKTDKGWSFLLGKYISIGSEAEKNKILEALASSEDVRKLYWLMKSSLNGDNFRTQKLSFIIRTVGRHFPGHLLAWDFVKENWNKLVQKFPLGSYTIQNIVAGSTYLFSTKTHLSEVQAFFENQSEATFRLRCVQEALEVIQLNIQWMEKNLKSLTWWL
UniProt Q9NVM6: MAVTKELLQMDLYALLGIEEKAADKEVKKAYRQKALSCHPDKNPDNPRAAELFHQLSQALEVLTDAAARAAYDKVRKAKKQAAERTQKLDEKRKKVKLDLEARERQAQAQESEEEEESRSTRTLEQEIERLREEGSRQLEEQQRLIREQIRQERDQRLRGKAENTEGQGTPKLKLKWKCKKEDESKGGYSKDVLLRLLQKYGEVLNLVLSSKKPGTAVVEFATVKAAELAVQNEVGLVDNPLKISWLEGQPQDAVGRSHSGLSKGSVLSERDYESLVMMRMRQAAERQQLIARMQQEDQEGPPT
UniProt Q9UBL0: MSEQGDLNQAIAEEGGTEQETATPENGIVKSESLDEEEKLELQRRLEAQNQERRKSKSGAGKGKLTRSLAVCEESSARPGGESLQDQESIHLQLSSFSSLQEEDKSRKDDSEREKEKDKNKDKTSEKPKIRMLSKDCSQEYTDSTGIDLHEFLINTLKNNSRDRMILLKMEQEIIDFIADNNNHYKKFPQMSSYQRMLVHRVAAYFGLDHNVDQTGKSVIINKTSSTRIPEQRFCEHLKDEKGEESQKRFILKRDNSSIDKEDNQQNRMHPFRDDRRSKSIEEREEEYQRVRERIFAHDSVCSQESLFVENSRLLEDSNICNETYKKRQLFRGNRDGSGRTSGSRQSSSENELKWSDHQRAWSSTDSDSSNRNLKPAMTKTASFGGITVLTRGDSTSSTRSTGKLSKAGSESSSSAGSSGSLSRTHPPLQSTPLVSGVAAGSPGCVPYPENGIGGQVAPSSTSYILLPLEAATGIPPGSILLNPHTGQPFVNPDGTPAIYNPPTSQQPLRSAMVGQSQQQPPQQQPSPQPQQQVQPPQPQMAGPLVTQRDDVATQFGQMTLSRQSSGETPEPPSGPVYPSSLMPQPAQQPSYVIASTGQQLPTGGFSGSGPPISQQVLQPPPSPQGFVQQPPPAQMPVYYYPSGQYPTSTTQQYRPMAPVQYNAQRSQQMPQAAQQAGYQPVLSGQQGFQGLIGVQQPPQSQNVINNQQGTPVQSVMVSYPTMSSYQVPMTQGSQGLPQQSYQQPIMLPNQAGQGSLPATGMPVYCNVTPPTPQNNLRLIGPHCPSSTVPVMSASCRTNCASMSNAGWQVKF
UniProt Q9UIM3: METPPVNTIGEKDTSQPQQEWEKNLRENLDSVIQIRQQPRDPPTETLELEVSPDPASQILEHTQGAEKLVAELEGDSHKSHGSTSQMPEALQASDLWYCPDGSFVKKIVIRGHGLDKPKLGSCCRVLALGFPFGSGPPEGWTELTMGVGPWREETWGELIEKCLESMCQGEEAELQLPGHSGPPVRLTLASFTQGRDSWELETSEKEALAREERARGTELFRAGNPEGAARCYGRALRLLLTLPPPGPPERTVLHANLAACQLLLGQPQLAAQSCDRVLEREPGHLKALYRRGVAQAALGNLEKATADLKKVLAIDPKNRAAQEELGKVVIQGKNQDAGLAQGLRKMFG
UniProt Q9NXG2: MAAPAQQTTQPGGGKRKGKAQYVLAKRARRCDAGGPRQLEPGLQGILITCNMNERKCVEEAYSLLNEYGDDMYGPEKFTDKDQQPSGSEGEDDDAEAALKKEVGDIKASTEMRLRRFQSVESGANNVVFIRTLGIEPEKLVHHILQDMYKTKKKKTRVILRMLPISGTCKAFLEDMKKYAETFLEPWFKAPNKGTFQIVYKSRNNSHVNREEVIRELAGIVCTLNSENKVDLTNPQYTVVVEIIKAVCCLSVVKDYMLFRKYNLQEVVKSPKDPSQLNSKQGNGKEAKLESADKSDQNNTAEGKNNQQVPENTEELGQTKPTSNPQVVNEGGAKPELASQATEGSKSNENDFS
UniProt Q9UI08, whole entry: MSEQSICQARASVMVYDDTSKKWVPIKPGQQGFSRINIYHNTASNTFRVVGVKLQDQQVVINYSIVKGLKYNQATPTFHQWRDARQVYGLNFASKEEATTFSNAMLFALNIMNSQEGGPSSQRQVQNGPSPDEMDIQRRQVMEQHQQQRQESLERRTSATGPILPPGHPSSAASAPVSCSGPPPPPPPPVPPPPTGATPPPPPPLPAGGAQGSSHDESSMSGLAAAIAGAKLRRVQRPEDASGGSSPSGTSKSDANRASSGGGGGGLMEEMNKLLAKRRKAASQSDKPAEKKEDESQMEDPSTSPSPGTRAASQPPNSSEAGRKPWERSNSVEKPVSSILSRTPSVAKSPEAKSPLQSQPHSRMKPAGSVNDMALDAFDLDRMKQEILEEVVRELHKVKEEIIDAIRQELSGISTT
UniProt Q9UJA5: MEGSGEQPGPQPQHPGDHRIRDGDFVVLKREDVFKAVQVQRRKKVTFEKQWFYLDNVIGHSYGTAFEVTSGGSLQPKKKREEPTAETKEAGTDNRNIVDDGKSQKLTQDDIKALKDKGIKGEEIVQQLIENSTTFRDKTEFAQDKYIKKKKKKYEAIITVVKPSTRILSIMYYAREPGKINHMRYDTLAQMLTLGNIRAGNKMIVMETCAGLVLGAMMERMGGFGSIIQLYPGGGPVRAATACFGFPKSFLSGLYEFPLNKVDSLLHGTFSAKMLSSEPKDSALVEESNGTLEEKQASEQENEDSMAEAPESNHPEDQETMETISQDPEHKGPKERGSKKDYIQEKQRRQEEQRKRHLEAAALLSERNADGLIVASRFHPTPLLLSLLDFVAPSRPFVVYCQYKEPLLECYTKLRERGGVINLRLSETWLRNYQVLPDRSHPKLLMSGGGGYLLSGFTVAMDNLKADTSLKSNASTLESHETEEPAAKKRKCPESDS
UniProt Q9P016: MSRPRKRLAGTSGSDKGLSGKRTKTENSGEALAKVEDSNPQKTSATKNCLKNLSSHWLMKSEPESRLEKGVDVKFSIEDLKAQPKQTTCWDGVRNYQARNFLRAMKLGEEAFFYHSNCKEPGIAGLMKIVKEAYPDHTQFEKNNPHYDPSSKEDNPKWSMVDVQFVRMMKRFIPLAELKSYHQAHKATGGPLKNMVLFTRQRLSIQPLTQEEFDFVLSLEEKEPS
UniProt Q9UKY1: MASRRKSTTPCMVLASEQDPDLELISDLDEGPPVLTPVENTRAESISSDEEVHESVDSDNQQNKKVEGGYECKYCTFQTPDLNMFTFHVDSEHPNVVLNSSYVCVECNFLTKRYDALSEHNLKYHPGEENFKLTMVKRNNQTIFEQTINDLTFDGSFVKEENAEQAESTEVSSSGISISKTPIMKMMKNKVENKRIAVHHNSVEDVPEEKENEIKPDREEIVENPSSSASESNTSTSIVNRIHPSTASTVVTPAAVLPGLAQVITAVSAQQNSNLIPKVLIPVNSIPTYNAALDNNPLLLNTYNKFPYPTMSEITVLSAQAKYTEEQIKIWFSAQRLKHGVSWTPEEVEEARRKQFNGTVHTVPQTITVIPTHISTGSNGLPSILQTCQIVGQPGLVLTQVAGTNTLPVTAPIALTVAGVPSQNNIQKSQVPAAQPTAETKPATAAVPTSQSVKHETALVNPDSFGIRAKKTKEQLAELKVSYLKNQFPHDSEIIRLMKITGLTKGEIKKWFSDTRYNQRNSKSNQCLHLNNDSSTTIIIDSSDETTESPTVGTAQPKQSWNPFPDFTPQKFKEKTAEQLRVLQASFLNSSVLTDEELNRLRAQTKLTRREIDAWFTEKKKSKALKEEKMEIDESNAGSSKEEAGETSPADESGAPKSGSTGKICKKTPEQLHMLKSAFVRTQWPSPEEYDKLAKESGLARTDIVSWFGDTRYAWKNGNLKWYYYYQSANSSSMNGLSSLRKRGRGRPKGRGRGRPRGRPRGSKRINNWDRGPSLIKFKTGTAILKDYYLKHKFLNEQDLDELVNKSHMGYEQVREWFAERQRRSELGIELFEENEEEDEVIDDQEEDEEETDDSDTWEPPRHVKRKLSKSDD

Compound: Nc1nc2c(ncn2[C@@H]2O[C@H](COP(=O)(O)OP(=O)(O)OP(=O)(O)O)[C@@H](O)[C@H]2O)c(=O)[nH]1 [guanosine triphosphate]
Experiment: NP40-soluble protein abundance relative to vehicle (solubility fold change) (ratio); higher = more soluble protein in presence of GTP
In short: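 Values are fold changes against the detergent-processed vehicle, based on vsn-normalised intensities. Jurkat crude lysate was treated at eight concentrations from 0.1 to 10 mM (10 min at room temperature, then 3 min at 37 °C), solubilised with 0.8% NP40 and benzonase, ultracentrifuged and analysed by TMT-labelled LC-MS/MS over three independent experiments.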

UniProt Q9P032
NP40-soluble protein abundance (concentration: 0.1mM): 0.894 ± 0.043 | NP40-soluble protein abundance (concentration: 0.5mM): 0.877 ± 0.026 | NP40-soluble protein abundance (concentration: 1mM): 0.944 ± 0.092 | NP40-soluble protein abundance (concentration: 2mM): 0.956 ± 0.047 | NP40-soluble protein abundance (concentration: 4mM): 0.907 ± 0.064 | NP40-soluble protein abundance (concentration: 6mM): 0.936 ± 0.061 | NP40-soluble protein abundance (concentration: 8mM): 0.902 ± 0.099 | NP40-soluble protein abundance (concentration: 10mM): 1.06 ± 0.11

UniProt Q9NXA8 and related entries
NP40-soluble protein abundance (concentration: 0.1mM): 1.09 ± 0.043 | NP40-soluble protein abundance (concentration: 0.5mM): 1.04 ± 0.0073 | NP40-soluble protein abundance (concentration: 1mM): 0.978 ± 0.011 | NP40-soluble protein abundance (concentration: 2mM): 0.977 ± 0.052 | NP40-soluble protein abundance (concentration: 4mM): 0.993 ± 0.1 | NP40-soluble protein abundance (concentration: 6mM): 1.01 ± 0.11 | NP40-soluble protein abundance (concentration: 8mM): 1.01 ± 0.08 | NP40-soluble protein abundance (concentration: 10mM): 0.959 ± 0.047

RNF181 (UniProt Q9P0P0)
NP40-soluble protein abundance (concentration: 0.1mM): 0.961 ± 0.027 | NP40-soluble protein abundance (concentration: 0.5mM): 0.925 ± 0.028 | NP40-soluble protein abundance (concentration: 1mM): 1.05 ± 0.077 | NP40-soluble protein abundance (concentration: 2mM): 1.03 ± 0.045 | NP40-soluble protein abundance (concentration: 4mM): 1.01 ± 0.013 | NP40-soluble protein abundance (concentration: 6mM): 1.02 ± 0.05 | NP40-soluble protein abundance (concentration: 8mM): 1.04 ± 0.1 | NP40-soluble protein abundance (concentration: 10mM): 1.09 ± 0.075

UniProt Q9P0N9 and related entries
NP40-soluble protein abundance (concentration: 0.1mM): 0.968 ± 0.028 | NP40-soluble protein abundance (concentration: 0.5mM): 0.932 ± 0.015 | NP40-soluble protein abundance (concentration: 1mM): 0.859 ± 0.08 | NP40-soluble protein abundance (concentration: 2mM): 0.902 ± 0.013 | NP40-soluble protein abundance (concentration: 4mM): 0.87 ± 0.059 | NP40-soluble protein abundance (concentration: 6mM): 0.863 ± 0.045 | NP40-soluble protein abundance (concentration: 8mM): 0.835 ± 0.077 | NP40-soluble protein abundance (concentration: 10mM): 0.857 ± 0.073

UniProt Q9UIQ6 and related entries
NP40-soluble protein abundance (concentration: 0.1mM): 0.957 ± 0.023 | NP40-soluble protein abundance (concentration: 0.5mM): 0.96 ± 0.04 | NP40-soluble protein abundance (concentration: 1mM): 0.99 ± 0.032 | NP40-soluble protein abundance (concentration: 2mM): 0.983 ± 0.054 | NP40-soluble protein abundance (concentration: 4mM): 0.97 ± 0.071 | NP40-soluble protein abundance (concentration: 6mM): 0.997 ± 0.048 | NP40-soluble protein abundance (concentration: 8mM): 0.9699 ± 0.0049 | NP40-soluble protein abundance (concentration: 10mM): 0.974 ± 0.052

UniProt Q9ULL5-3
NP40-soluble protein abundance (concentration: 0.1mM): 1.11 ± 0.1 | NP40-soluble protein abundance (concentration: 0.5mM): 1.08 ± 0.094 | NP40-soluble protein abundance (concentration: 1mM): 1.07 ± 0.099 | NP40-soluble protein abundance (concentration: 2mM): 1.01 ± 0.092 | NP40-soluble protein abundance (concentration: 4mM): 1 ± 0.11 | NP40-soluble protein abundance (concentration: 6mM): 1.02 ± 0.092 | NP40-soluble protein abundance (concentration: 8mM): 1.03 ± 0.068 | NP40-soluble protein abundance (concentration: 10mM): 1.04 ± 0.074

DNAJC17 (UniProt Q9NVM6)
NP40-soluble protein abundance (concentration: 0.1mM): 0.836 ± 0.025 | NP40-soluble protein abundance (concentration: 0.5mM): 0.92 ± 0.14 | NP40-soluble protein abundance (concentration: 1mM): 0.992 ± 0.11 | NP40-soluble protein abundance (concentration: 2mM): 1.01 ± 0.028 | NP40-soluble protein abundance (concentration: 4mM): 1.08 ± 0.1 | NP40-soluble protein abundance (concentration: 6mM): 1.06 ± 0.15 | NP40-soluble protein abundance (concentration: 8mM): 0.987 ± 0.027 | NP40-soluble protein abundance (concentration: 10mM): 1.23 ± 0.2

UniProt Q9UBL0 and related entries
NP40-soluble protein abundance (concentration: 0.1mM): 0.958 ± 0.092 | NP40-soluble protein abundance (concentration: 0.5mM): 0.962 ± 0.076 | NP40-soluble protein abundance (concentration: 1mM): 0.954 ± 0.1 | NP40-soluble protein abundance (concentration: 2mM): 0.901 ± 0.11 | NP40-soluble protein abundance (concentration: 4mM): 0.904 ± 0.11 | NP40-soluble protein abundance (concentration: 6mM): 0.978 ± 0.13 | NP40-soluble protein abundance (concentration: 8mM): 0.905 ± 0.14 | NP40-soluble protein abundance (concentration: 10mM): 0.885 ± 0.11

FKBPL (UniProt Q9UIM3)
NP40-soluble protein abundance (concentration: 0.1mM): 0.917 ± 0.1 | NP40-soluble protein abundance (concentration: 0.5mM): 0.892 ± 0.15 | NP40-soluble protein abundance (concentration: 1mM): 1.01 ± 0.23 | NP40-soluble protein abundance (concentration: 2mM): 1.02 ± 0.11 | NP40-soluble protein abundance (concentration: 4mM): 0.924 ± 0.24 | NP40-soluble protein abundance (concentration: 6mM): 1 ± 0.13 | NP40-soluble protein abundance (concentration: 8mM): 0.982 ± 0.25 | NP40-soluble protein abundance (concentration: 10mM): 1 ± 0.11

THUMPD1 (UniProt Q9NXG2)
NP40-soluble protein abundance (concentration: 0.1mM): 0.874 ± 0.035 | NP40-soluble protein abundance (concentration: 0.5mM): 0.82 ± 0.067 | NP40-soluble protein abundance (concentration: 1mM): 0.992 ± 0.013 | NP40-soluble protein abundance (concentration: 2mM): 0.98 ± 0.044 | NP40-soluble protein abundance (concentration: 4mM): 0.965 ± 0.045 | NP40-soluble protein abundance (concentration: 6mM): 0.986 ± 0.046 | NP40-soluble protein abundance (concentration: 8mM): 0.922 ± 0.14 | NP40-soluble protein abundance (concentration: 10mM): 0.993 ± 0.039

UniProt Q9UI08 and related entries
NP40-soluble protein abundance (concentration: 0.1mM): 0.933 ± 0.069 | NP40-soluble protein abundance (concentration: 0.5mM): 0.943 ± 0.093 | NP40-soluble protein abundance (concentration: 1mM): 0.983 ± 0.11 | NP40-soluble protein abundance (concentration: 2mM): 0.926 ± 0.1 | NP40-soluble protein abundance (concentration: 4mM): 0.917 ± 0.11 | NP40-soluble protein abundance (concentration: 6mM): 0.94 ± 0.1 | NP40-soluble protein abundance (concentration: 8mM): 0.95 ± 0.071 | NP40-soluble protein abundance (concentration: 10mM): 0.965 ± 0.095

TRMT6 (UniProt Q9UJA5)
NP40-soluble protein abundance (concentration: 0.1mM): 1 ± 0.038 | NP40-soluble protein abundance (concentration: 0.5mM): 0.9845 ± 0.006 | NP40-soluble protein abundance (concentration: 1mM): 0.9744 ± 0.0043 | NP40-soluble protein abundance (concentration: 2mM): 0.973 ± 0.029 | NP40-soluble protein abundance (concentration: 4mM): 0.968 ± 0.054 | NP40-soluble protein abundance (concentration: 6mM): 0.952 ± 0.017 | NP40-soluble protein abundance (concentration: 8mM): 0.965 ± 0.0097 | NP40-soluble protein abundance (concentration: 10mM): 0.968 ± 0.019

THYN1 (UniProt Q9P016)
NP40-soluble protein abundance (concentration: 0.1mM): 0.869 ± 0.068 | NP40-soluble protein abundance (concentration: 0.5mM): 0.838 ± 0.021 | NP40-soluble protein abundance (concentration: 1mM): 1.01 ± 0.085 | NP40-soluble protein abundance (concentration: 2mM): 1.06 ± 0.012 | NP40-soluble protein abundance (concentration: 4mM): 1.12 ± 0.043 | NP40-soluble protein abundance (concentration: 6mM): 1.1 ± 0.034 | NP40-soluble protein abundance (concentration: 8mM): 1.08 ± 0.11 | NP40-soluble protein abundance (concentration: 10mM): 1.23 ± 0.058

ZHX1 (UniProt Q9UKY1)
NP40-soluble protein abundance (concentration: 0.1mM): 1.09 ± 0.08 | NP40-soluble protein abundance (concentration: 0.5mM): 1.11 ± 0.039 | NP40-soluble protein abundance (concentration: 1mM): 1.12 ± 0.11 | NP40-soluble protein abundance (concentration: 2mM): 1.09 ± 0.077 | NP40-soluble protein abundance (concentration: 4mM): 1.15 ± 0.041 | NP40-soluble protein abundance (concentration: 6mM): 1.09 ± 0.048 | NP40-soluble protein abundance (concentration: 8mM): 1.19 ± 0.09 | NP40-soluble protein abundance (concentration: 10mM): 1.17 ± 0.092
